Assay results published in article PMC4667271, “Discovery of a Novel Inhibitor of the Protein Tyrosine Phosphatase Shp2” (Scientific Reports, 2015).
Results are given in words; binding and its absence hold for the method and conditions named. Binding seen in cells or lysates may run through a third protein. Some binding calls cover weakened binding; strength is not graded here.

Molecular target: T1, Gab1 (human (endogenous in HEK293T and MDA-MB-231)) (UniProt Q13480)
T1 sequence (chain, tyrosine-phosphorylated (pY-Gab1) in EGF-stimulated cells; sites not stated): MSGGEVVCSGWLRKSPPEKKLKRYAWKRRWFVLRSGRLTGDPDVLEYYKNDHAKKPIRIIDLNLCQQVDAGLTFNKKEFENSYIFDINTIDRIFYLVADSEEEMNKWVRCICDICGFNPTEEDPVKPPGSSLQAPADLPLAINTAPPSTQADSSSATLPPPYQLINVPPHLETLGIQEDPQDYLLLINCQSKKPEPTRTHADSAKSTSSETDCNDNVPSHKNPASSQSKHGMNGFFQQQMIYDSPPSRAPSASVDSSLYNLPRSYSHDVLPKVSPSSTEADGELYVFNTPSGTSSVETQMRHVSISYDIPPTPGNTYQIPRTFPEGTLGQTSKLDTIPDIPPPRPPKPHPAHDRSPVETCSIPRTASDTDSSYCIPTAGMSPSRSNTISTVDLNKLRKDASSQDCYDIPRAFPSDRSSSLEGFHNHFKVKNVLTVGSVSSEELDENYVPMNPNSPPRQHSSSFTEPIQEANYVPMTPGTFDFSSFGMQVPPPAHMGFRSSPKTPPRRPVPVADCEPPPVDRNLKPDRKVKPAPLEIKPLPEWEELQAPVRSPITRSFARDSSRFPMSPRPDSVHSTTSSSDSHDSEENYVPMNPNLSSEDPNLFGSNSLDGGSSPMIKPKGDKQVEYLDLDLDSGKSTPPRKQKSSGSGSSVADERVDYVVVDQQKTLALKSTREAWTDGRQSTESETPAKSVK
Test: co-IP; HEK293T cells serum-starved 18 h, with or without Fumos (20 uM, 24 h), then EGF (20 ng/ml, 5 min), or Fumos alone; lysate supernatant immunoprecipitated with antibody against Shp2 or Gab1 and Protein A/G PLUS-Agarose at 4 C; immunoblot for Gab1, RasGAP, pY and Shp2

B1: RasGAP (protein, UniProt P20936 1-1047)
chain: MMAAEAGSEEGGPVTAGAGGGGAAAGSSAYPAVCRVKIPAALPVAAAPYPGLVETGVAGTLGGGAALGSEFLGAGSVAGALGGAGLTGGGTAAGVAGAAAGVAGAAVAGPSGDMALTKLPTSLLAETLGPGGGFPPLPPPPYLPPLGAGLGTVDEGDSLDGPEYEEEEVAIPLTAPPTNQWYHGKLDRTIAEERLRQAGKSGSYLIRESDRRPGSFVLSFLSQMNVVNHFRIIAMCGDYYIGGRRFSSLSDLIGYYSHVSCLLKGEKLLYPVAPPEPVEDRRRVRAILPYTKVPDTDEISFLKGDMFIVHNELEDGWMWVTNLRTDEQGLIVEDLVEEVGREEDPHEGKIWFHGKISKQEAYNLLMTVGQVCSFLVRPSDNTPGDYSLYFRTNENIQRFKICPTPNNQFMMGGRYYNSIGDIIDHYRKEQIVEGYYLKEPVPMQDQEQVLNDTVDGKEIYNTIRRKTKDAFYKNIVKKGYLLKKGKGKRWKNLYFILEGSDAQLIYFESEKRATKPKGLIDLSVCSVYVVHDSLFGRPNCFQIVVQHFSEEHYIFYFAGETPEQAEDWMKGLQAFCNLRKSSPGTSNKRLRQVSSLVLHIEEAHKLPVKHFTNPYCNIYLNSVQVAKTHAREGQNPVWSEEFVFDDLPPDINRFEITLSNKTKKSKDPDILFMRCQLSRLQKGHATDEWFLLSSHIPLKGIEPGSLRVRARYSMEKIMPEEEYSEFKELILQKELHVVYALSHVCGQDRTLLASILLRIFLHEKLESLLLCTLNDREISMEDEATTLFRATTLASTLMEQYMKATATQFVHHALKDSILKIMESKQSCELSPSKLEKNEDVNTNLTHLLNILSELVEKIFMASEILPPTLRYIYGCLQKSVQHKWPTNTTMRTRVVSGFVFLRLICPAILNPRMFNIISDSPSPIAARTLILVAKSVQNLANLVEFGAKEPYMEGVNPFIKSNKHRMIMFLDELGNVPELPDTTEHSRTDLSRDLAALHEICVAHSDELRTLSNERGAQQHVLKKLLAITELLQQKQNQYTKTNDVR
binding: binds
